The target in experiment [1] is AtPP7-GFP protein fusion (Arabidopsis) (UniProt Q9FN02). The experiment can be described thus: co-IP; extracts of 4-day dark-grown AtPP7-GFP seedlings after a 5 min red light pulse (10 umol m^-2 s^-1, 22°C); anti-GFP agarose beads, 5 h at 4°C in darkness; Hepes 50 mM pH 7.9, 150 mM NaCl, 0.5% Triton X-100; blots with specific antibodies.
Experiment [2] has the same target. Description: condition: only dark-grown seedlings without the red light pulse; co-IP; extracts of 4-day dark-grown AtPP7-GFP seedlings without red pulse (dark control); anti-GFP agarose beads, 5 h at 4°C in darkness; Hepes 50 mM pH 7.9, 150 mM NaCl, 0.5% Triton X-100; blots with specific antibodies.

Amino acid sequences for entries named in this document (tags omitted). A change or cut given only in a name is not applied to a line headed by its entry.
UniProt Q9FN02: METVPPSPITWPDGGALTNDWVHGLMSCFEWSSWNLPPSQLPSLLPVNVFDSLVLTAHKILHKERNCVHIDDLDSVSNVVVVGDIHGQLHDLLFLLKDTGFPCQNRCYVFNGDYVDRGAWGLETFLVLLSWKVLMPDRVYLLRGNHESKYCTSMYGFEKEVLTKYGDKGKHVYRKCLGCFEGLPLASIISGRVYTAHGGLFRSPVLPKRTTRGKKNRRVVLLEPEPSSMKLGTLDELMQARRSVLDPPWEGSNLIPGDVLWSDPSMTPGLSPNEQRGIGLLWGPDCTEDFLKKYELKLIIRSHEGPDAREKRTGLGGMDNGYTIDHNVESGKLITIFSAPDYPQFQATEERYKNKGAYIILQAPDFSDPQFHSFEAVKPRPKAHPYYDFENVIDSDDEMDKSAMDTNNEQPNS

No constants are given. Whether binding was seen depends on the method and setting. In cells and extracts the contact can be indirect. For part of these data: A result given as binding can be weak or reduced; the word gives no strength.

B1: phytochrome A (phyA), endogenous (receptor, UniProt P14712 1-1122)
chain: MSGSRPTQSSEGSRRSRHSARIIAQTTVDAKLHADFEESGSSFDYSTSVRVTGPVVENQPPRSDKVTTTYLHHIQKGKLIQPFGCLLALDEKTFKVIAYSENASELLTMASHAVPSVGEHPVLGIGTDIRSLFTAPSASALQKALGFGDVSLLNPILVHCRTSAKPFYAIIHRVTGSIIIDFEPVKPYEVPMTAAGALQSYKLAAKAITRLQSLPSGSMERLCDTMVQEVFELTGYDRVMAYKFHEDDHGEVVSEVTKPGLEPYLGLHYPATDIPQAARFLFMKNKVRMIVDCNAKHARVLQDEKLSFDLTLCGSTLRAPHSCHLQYMANMDSIASLVMAVVVNEEDGEGDAPDATTQPQKRKRLWGLVVCHNTTPRFVPFPLRYACEFLAQVFAIHVNKEVELDNQMVEKNILRTQTLLCDMLMRDAPLGIVSQSPNIMDLVKCDGAALLYKDKIWKLGTTPSEFHLQEIASWLCEYHMDSTGLSTDSLHDAGFPRALSLGDSVCGMAAVRISSKDMIFWFRSHTAGEVRWGGAKHDPDDRDDARRMHPRSSFKAFLEVVKTRSLPWKDYEMDAIHSLQLILRNAFKDSETTDVNTKVIYSKLNDLKIDGIQELEAVTSEMVRLIETATVPILAVDSDGLVNGWNTKIAELTGLSVDEAIGKHFLTLVEDSSVEIVKRMLENALEGTEEQNVQFEIKTHLSRADAGPISLVVNACASRDLHENVVGVCFVAHDLTGQKTVMDKFTRIEGDYKAIIQNPNPLIPPIFGTDEFGWCTEWNPAMSKLTGLKREEVIDKMLLGEVFGTQKSCCRLKNQEAFVNLGIVLNNAVTSQDPEKVSFAFFTRGGKYVECLLCVSKKLDREGVVTGVFCFLQLASHELQQALHVQRLAERTAVKRLKALAYIKRQIRNPLSGIMFTRKMIEGTELGPEQRRILQTSALCQKQLSKILDDSDLESIIEGCLDLEMKEFTLNEVLTASTSQVMMKSNGKSVRITNETGEEVMSDTLYGDSIRLQQVLADFMLMAVNFTPSGGQLTVSASLRKDQLGRSVHLANLEIRLTHTGAGIPEFLLNQMFGTEEDVSEEGLSLMVSRKLVKLMNGDVQYLRQAGKSSFIITAELAAANK
Take B1: the binding entry in experiment [1] is on record as “binds”.

B2: nucleotide diphosphate kinase 2 (NDPK2), endogenous (protein, UniProt O64903 63-231)
chain: ASSSAESGIFLPHLVASMEDVEETYIMVKPDGIQRGLVGEIISRFEKKGFKLIGLKMFQCPKELAEEHYKDLSAKSFFPNLIEYITSGPVVCMAWEGVGVVASARKLIGKTDPLQAEPGTIRGDLAVQTGRNIVHGSDSPENGKREIGLWFKEGELCKWDSALATWLRE
Consider B2, for which the binding entry in experiment [1] is on record as “binds”; in experiment [2], “no binding”.

Source of the values: PMC2444027.
